These are yes or no findings as the source states them, for the method shown. Some binding calls cover weakened binding; strength is not graded here.
Biological target: recombinant HER-2 (UniProt P04626)
Experiment: flow cytometry of engineered T cells incubated with recombinant HER-2 (Fig. 4A)

binding: binds
B1: Anti-HER-2 DARPin CAR (protein, not shown: small tags and cut ends)
chain: MSRGSDLGKKLLEAARAGQDDEVRILMANGADVNAKDEYGLTPLYLATAHGHLEIVEVLLKNGADVNAVDAIGFTPLHLAAFIGHLEIAEVLLKHGADVNAQDKFGKTAFDISIGNGNEDLAEILQKLN
